Results published in PubChem BioAssay AID485314 (National Center for Advancing Translational Sciences (NCATS), 2010).
The whole screen tested about 340,000 compounds, of which about 4,500 (1.3%) were called active. Inconclusive results, whose numbers are uncertain, are shown with a selection of clear calls. Calls follow the shape of the dose curve; as a rule, active = well fitted inhibition curve with a large enough effect; inconclusive = small, poorly fitted or top-dose-only effect, or another doubt; inactive = no such curve, though single readings can be large or run the other way. Where the call is inconclusive, the potency comes from a doubtful curve fit.

Each compound was assayed against DNA polymerase beta (Homo sapiens) (UniProt P06746) (assay: qHTS Assay for Inhibitors of DNA Polymerase Beta). Conditions: Pol beta primer extension/strand displacement, fluorescence kinetic; activity change, negative = inhibition: at 114 µM (top of the series).
Outline: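 Pol beta (10 nM) was preincubated with compound for 15 min at room temperature. The reaction was then started with 50 nM substrate and read immediately and after a further 10 min at room temperature.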
% is scaled to controls: 0 for no effect and ±100 for the full control effect; potency is read from the fitted curve at half-maximal effect.

| SMILES | Potency | activity change, negative = inhibition |
| --- | --- | --- |
| Cc1ccc(CNC(=O)c2cc(-c3cc(C)cc(C)c3O)n[nH]2)cc1 | inconclusive: 25.1 µM [inhibitor, full curve] |  |
| Cc1cc(N/C=C/C(=O)c2ccc(Br)cc2)no1 | inconclusive: 20 µM [inhibitor, single point] |  |
| O=C1CN(C(=O)c2cc3ccccc3oc2=O)C(c2ccccc2)c2cc(F)ccc2N1 (stereo unspecified) | inconclusive: 100 µM [inhibitor, single point] |  |
| Cc1occc1C(=O)Nc1nnc(-c2cccs2)s1 | inconclusive: 89.1 µM [inhibitor, single point] |  |
| CSc1nnc(-c2ccc(NC(N)=S)cc2)o1 | inconclusive: 89.1 µM [inhibitor, single point] |  |
| CCS(=O)(=O)Nc1ccc(C2=NN(C(=O)c3ccco3)C(c3cccc(F)c3)C2)cc1 (stereo unspecified) | inactive |  |
| CCCCN(c1ccccc1)c1ncnc2c1cnn2-c1ccc(Cl)cc1 | inactive |  |
| O=C1CC(NCc2ccc(F)cc2)C(=O)N1c1ccccc1 (stereo unspecified) | inconclusive: 0.631 µM [inhibitor, full curve, poor fit] |  |
| COc1ccc2c(Sc3ccccc3)c(C(=O)NCCN(C)C)[nH]c2c1 | inactive |  |
| CCOC(=O)c1c(C)oc2c1c(C=NCCO)c(O)c1ccccc12 | inconclusive: 11.2 µM [inhibitor, partial curve] |  |
| O=C(COC(=O)c1c(F)cccc1F)Nc1ccc2[nH]c(=O)[nH]c2c1 | inconclusive: 35.5 µM [inhibitor, partial curve] |  |
| Cc1cc2c(cc1S(=O)(=O)Nc1cccc(C(F)(F)F)c1)OCCN2C | inactive |  |
| CCOC(=O)c1oc2c(O)c(O)ccc2c(=O)c1-c1nncn1-c1ccccc1 | inconclusive: 8.91 µM [inhibitor, partial curve] |  |
| Cc1ccc(Cl)cc1NC(=O)NC1COc2ccccc2C1 (stereo unspecified) | inconclusive: 70.8 µM [inhibitor, single point] |  |
| CCOc1ccc(Nc2nc(N(C)c3ccccc3)nc(N)c2[N+](=O)[O-])cc1 | inconclusive: 100 µM [inhibitor, partial curve, poor fit] |  |
| CN(CC(=O)Nc1cccc(F)c1)C(=O)/C=C/c1ccc2ccccc2n1 | inconclusive: 39.8 µM [inhibitor, partial curve] |  |
| O=C1C2CC=C(Cl)CC2C(=O)N1CN(Cc1ccco1)CN1C(=O)C2CC=C(Cl)CC2C1=O (stereo unspecified) | active: 35.5 µM |  |
| Cc1ccc(NC(=S)NNC(=O)c2c([N+](=O)[O-])c(C)nn2C)cc1 | inconclusive: 89.1 µM [inhibitor, single point] |  |
| COc1ccc(C(=O)NCC(=O)N2CCCC(C)C2)cc1OC (stereo unspecified) | inconclusive: 39.8 µM [inhibitor, single point] |  |
| Brc1ccc(Oc2ncc(CN3CCN(c4ccccc4)CC3)s2)cc1 | inconclusive: 12.6 µM [inhibitor, partial curve] |  |
| Cc1ccc(S(=O)(=O)NNC(=O)c2cccc(O)c2)cc1 | inconclusive: 3.98 µM [inhibitor, single point] |  |
| Cn1c(=O)oc2cc(S(=O)(=O)NCCC(=O)Nc3ccc(F)c(Cl)c3)ccc21 | inconclusive: 31.6 µM [inhibitor, partial curve, poor fit] |  |
| CCOc1ccc(CCNC(=O)C2=C(C)C(=O)OC23CCC(C)CC3)cc1OCC (stereo unspecified) | inconclusive: 3.55 µM [inhibitor, single point] |  |
| CN(Cc1ccco1)C(=O)c1ccc(OC2CCN(Cc3ccccn3)CC2)cc1 | inactive |  |

In the list so far, 3 have an NH in an aromatic ring.

| SMILES | Potency | activity change, negative = inhibition |
| --- | --- | --- |
| Cc1ccc(CNC(=O)c2cc(-c3cc(C)cc(C)c3O)n[nH]2)cc1 | inconclusive: 25.1 µM [inhibitor, full curve] |  |
| COc1ccc2c(Sc3ccccc3)c(C(=O)NCCN(C)C)[nH]c2c1 | inactive |  |
| O=C(COC(=O)c1c(F)cccc1F)Nc1ccc2[nH]c(=O)[nH]c2c1 | inconclusive: 35.5 µM [inhibitor, partial curve] |  |

The listing continues:

| SMILES | Potency | activity change, negative = inhibition |
| --- | --- | --- |
| Cc1ccc(C(=O)c2oc3ccccc3c2NC(=O)c2nc(S(C)(=O)=O)ncc2Cl)cc1F | inconclusive: 89.1 µM [inhibitor, single point] |  |
| COc1cccc(N=Nc2c(=O)[nH]n3c(=O)cc(C)[nH]c23)c1 | inactive |  |
| O=C(O)CC1SC(=O)N(Cc2ccccc2)C1=O (stereo unspecified) | inconclusive: 31.6 µM [inhibitor, single point] |  |
| COc1ccc(C)cc1N(C)C(=O)c1sc2nc3n(c(=O)c2c1C)CCCCC3 | inconclusive: 3.16 µM [inhibitor, single point] |  |
| O=C(Cn1cnc2ccccc2c1=O)NCc1cccs1 | inactive |  |
| Cc1ccc(NC(=O)c2ncn(-c3ccccc3)n2)c(Cl)c1 | inconclusive: 8.91 µM [inhibitor, partial curve, poor fit] |  |
| O=C(/C=C/c1ccco1)N1CCC(Cc2ccccc2)CC1 | inconclusive: 50.1 µM [inhibitor, partial curve] |  |
| C[C@@H]1NC(=O)/C(=C\c2ccccc2Br)NC1=O | inconclusive: 89.1 µM [inhibitor, single point] |  |
| Cc1cccc(NC(=S)N/N=C/C(C)c2ccccc2)c1C (stereo unspecified) | inconclusive: 0.708 µM [inhibitor, full curve, poor fit] |  |
| O=C1NC(=S)N/C1=C/c1cccn1-c1ccc([N+](=O)[O-])cc1 | active: 7.94 µM |  |
| Cc1cccc(COC(=O)C(Cc2ccccc2)NC(N)=O)c1 (stereo unspecified) | inconclusive: 100 µM [inhibitor, single point] |  |
| CCCOc1ccc(OC(=O)c2sc3ncn(Cc4cccc(F)c4)c(=O)c3c2C)cc1 | inactive |  |
| Cc1ccc(-n2c(C)nnc2SCC(=O)NC2CCCC2)cc1 | inactive |  |
| COc1cc2c(cc1OC)C1O[C@](c3ccsc3)(C2)Oc2cc(-c3ccccc3)oc(=O)c21 | active: 12.6 µM |  |
| CSc1ccccc1NS(=O)(=O)c1cccc2nonc12 |  | inconclusive: -59.2% [inhibitor] |
| Oc1ccc(-c2csc(-c3cccnc3)n2)cc1O |  | inconclusive: -107% [inhibitor] |
| O=C(Nc1ccc2oc(-c3ccc(Cl)c(Cl)c3)nc2c1)c1ncn[nH]1 | active: 11.2 µM |  |
| Cc1ncc(CO)c2c1Oc1nc(-c3ccccc3)nc(SCC(=O)Nc3cccc(O)c3)c1C2 | inactive |  |
| CCCS(=O)(=O)NCCc1csc2nc(-c3ccc(OC)cc3)nn12 | inactive |  |
| CCOc1c(Cl)cc(CNCC(C)C)cc1OC | inconclusive: 89.1 µM [inhibitor, single point] |  |
| Cc1ccccc1CNC(=O)CCCn1nc(C)c2sc3ccccc3c2c1=O | inactive |  |
| CN(Cc1ccccc1)c1ncnc2c1nc1n2CCCC1 | inconclusive: 100 µM [inhibitor, single point] |  |
| COc1ccccc1N(CC(=O)NCCSCc1ccc(Cl)cc1)S(C)(=O)=O | inconclusive: 89.1 µM [inhibitor, single point] |  |
| CCc1c(C)c(C#N)c2nc3ccccc3n2c1NCCN(C)C | inconclusive: 89.1 µM [inhibitor, single point] |  |

| SMILES | Potency | activity change, negative = inhibition |
| --- | --- | --- |
| CN(C(=O)c1cc2ccccc2oc1=O)C1(C)CCS(=O)(=O)C1 (stereo unspecified) | inactive |  |
| COc1ccc(OC)c(/C=C/C(=O)c2ccc3c(c2)OCCO3)c1 | inconclusive: 39.8 µM [inhibitor, single point] |  |
| NC(=O)CSc1nccn1Cc1ccc2c(c1)OCO2 | inconclusive: 20 µM [inhibitor, partial curve] |  |
| O=C(Nc1ccccc1)OCCOc1cccc(Br)c1 | inactive |  |
| CCn1c(SC)nnc1-c1nnc(SC)n1CC | inactive |  |
| O=S(=O)(c1cccs1)N1CCC(Cc2ccccc2)CC1 | inconclusive: 89.1 µM [inhibitor, single point] |  |
| CC(=O)Nc1ccc(S(=O)(=O)/N=C2\C(=O)c3ccccc3C([O-])=C2n2cc[n+](-c3ccccn3)c2)cc1 | inconclusive: 39.8 µM [inhibitor, partial curve] |  |
| CCCCOc1cccc(C(=O)Nc2cccc3ccc(C)nc23)c1 | inconclusive: 89.1 µM [inhibitor, single point] |  |
| CCOC(=O)COc1cc(OCC(=O)OCC)c2c(=O)cc(-c3ccccc3)oc2c1 | inconclusive: 0.251 µM [inhibitor, full curve] |  |
| COc1ccccc1C(=O)NC(CCSC)C(=O)OCC(=O)NC(=O)NCc1ccco1 (stereo unspecified) | inconclusive: 89.1 µM [inhibitor, single point] |  |
| CCC(=O)Oc1ccc(C2N(C(=O)CC)CCN2S(=O)(=O)c2ccc(C)cc2)cc1OC (stereo unspecified) | inconclusive: 3.16 µM [inhibitor, full curve, poor fit] |  |
| CCOC(=O)CNC(=O)Cn1cnc2c(nnn2-c2cccc(Cl)c2)c1=O | inconclusive: 0.631 µM [inhibitor, partial curve, poor fit] |  |
| CC(=O)NN1C(=O)/C(=C\c2ccc(Br)o2)SC1=S | active: 28.2 µM |  |
| COc1ccc(CC(=O)NC(c2ccccc2)c2ccc(C)cc2)c(OC)c1 (stereo unspecified) | inactive |  |
| O=C(CN1CCOCC1)Nc1c(-c2ccccc2)c2cc(Br)ccc2[nH]c1=O | inconclusive: 89.1 µM [inhibitor, single point] |  |
| COc1ccc(NC(=O)c2cnc(SC)n2-c2ccc(F)cc2)c(OC)c1 | inactive |  |
| O=C(O)CC(NC(=O)Cc1ccc([N+](=O)[O-])cc1)c1ccc2c(c1)OCO2 (stereo unspecified) | inactive |  |
| CC/C=C\[C@H](O)[C@H](O)C1=C(C)C(=O)[C@]2(O1)C(=O)N[C@@](OC)(C(=O)c1ccccc1)C2O (stereo partly specified) | active: 35.5 µM |  |
| CCc1ccc(-c2nc3c(c(SCc4ccc(F)cc4)n2)Cc2c(CO)cnc(C)c2O3)cc1 | inactive |  |
| CC(/C=N/Nc1ccc2nncn2n1)=C\c1ccccc1 |  | inconclusive: -81.8% [inhibitor] |
| CC1(C)Cc2c(C#N)c(NCc3ccco3)nc(-c3ccco3)c2CO1 | inconclusive: 31.6 µM [inhibitor, partial curve] |  |
| CC(=O)Nc1ccc(S(=O)(=O)Nc2cc(C)c(-n3nc4ccccc4n3)cc2O)cc1 | inconclusive: 2.51 µM [inhibitor, single point] |  |
| COc1cc(-c2noc(-c3ccc(NCCc4ccccc4)c([N+](=O)[O-])c3)n2)cc(OC)c1OC | inactive |  |
